Experimental findings from PMC7360964, “Auto‐inhibition of Mif2/CENP‐C ensures centromere‐dependent kinetochore assembly in budding yeast” (The EMBO Journal, 2020) are described below.

Chains of the proteins cited; added tags and fusions are not shown. Lines headed by an entry give the natural chain unless they say otherwise; changes in a name come on top. A line that says so, or that is headed by a name, gives the form on record, which may keep a tag or linker. Residues count along the entry.
GST-Mif2-N^1-41 (P35201, residues 1-41): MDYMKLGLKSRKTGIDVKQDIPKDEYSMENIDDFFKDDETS
Mif2-ΔsigAT (Mif2-Δ284–367), C-terminal Flag (P35201, form named): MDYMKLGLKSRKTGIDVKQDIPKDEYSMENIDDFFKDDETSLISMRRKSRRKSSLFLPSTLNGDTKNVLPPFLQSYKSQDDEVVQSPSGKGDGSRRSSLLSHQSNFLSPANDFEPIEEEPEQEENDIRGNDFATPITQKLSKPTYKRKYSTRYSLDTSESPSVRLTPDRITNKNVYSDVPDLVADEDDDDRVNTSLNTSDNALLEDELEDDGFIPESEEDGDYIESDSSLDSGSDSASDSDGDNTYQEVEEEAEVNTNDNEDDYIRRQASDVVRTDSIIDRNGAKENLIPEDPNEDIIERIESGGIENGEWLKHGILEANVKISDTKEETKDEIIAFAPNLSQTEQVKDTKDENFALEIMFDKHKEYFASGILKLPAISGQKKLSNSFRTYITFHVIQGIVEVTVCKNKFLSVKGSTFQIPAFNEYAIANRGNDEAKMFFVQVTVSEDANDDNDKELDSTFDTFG
GST-Mif2-N Arg11 to alanine (P35201, form named): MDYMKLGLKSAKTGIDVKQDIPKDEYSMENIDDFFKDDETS
GST-Ame1^1-30 (P38313, residues 1-30): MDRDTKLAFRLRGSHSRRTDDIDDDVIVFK
GST-Ame1-N Arg10 to alanine (P38313, form named): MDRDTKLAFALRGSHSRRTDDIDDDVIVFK

No constants are given. Whether binding was seen depends on the method and setting. Some entries that bind do so weakly or less than the wild type.

Experiment [1] concerns the target Mif2-ΔsigAT (Mif2-Δ284–367), C-terminal Flag (S. cerevisiae) (UniProt P35201). Nature of the experiment: pull-down; Mif2-Flag variants from insect cell lysate immobilised on M2 Flag agarose, washed, as bait at 1 μM; MN as prey at 3 μM; 1 h at 4°C; pulldown buffer; eluted with Flag peptide; Coomassie and anti-His Western; both purified.
The target in experiment [2] is GST-Mif2-N^1-41 (S. cerevisiae) (UniProt P35201). Nature of the experiment: pull-down; competition: GST-Mif2 1-41 on GSH Sepharose (1 μM), MN (3 μM) with increasing concentrations of Ame1 1-20 peptide; 1 h at 4°C; pulldown buffer; Mtw1 bands quantified; both purified.
Experiment [3] concerns the target FITC-Mif2^1-41 (S. cerevisiae) (UniProt P35201). Nature of the experiment: fluorescence polarisation; competition: 0.1 μM FITC-Mif2 1-41, 0.4 μM MN, Ame1-N from 0 to 40 μM; 30 mM Hepes pH 7.5, 150 mM NaCl, 1 mM TCEP, 23°C; both purified.
The target of experiment [4] is Mif2-ΔsigAT (Mif2-Δ284–367), C-terminal Flag (S. cerevisiae) (UniProt P35201). The experiment is described as follows: SEC; analytical SEC, equimolar mix at 10 μM each, Superose 6 3.2/30, 4°C; 20 mM HEPES pH 7.5, 150 mM NaCl, 2.5% glycerol, 1 mM TCEP; fractions on Coomassie-stained SDS-PAGE; both purified.
In experiment [5] the target is GST-Mif2-N Arg11 to alanine (S. cerevisiae) (UniProt P35201). Nature of the experiment: pull-down; GST fusions on BSA-preblocked GSH Sepharose as bait at 1 μM, MN as prey at 3 μM; 1 h at 4°C; 10 mM HEPES pH 7.5, 200 mM NaCl, 0.05% Triton, 2.5% glycerol, 1 mM TCEP; Coomassie-stained gel; both purified.
Experiment [6] deals with GST-Mif2-N^1-41 (S. cerevisiae) (UniProt P35201). The experiment is described as above.
The target in experiment [7] is GST-Ame1^1-30 (S. cerevisiae) (UniProt P38313). The description is as above.
Experiment [8] addresses GST-Ame1-N Arg10 to alanine (S. cerevisiae) (UniProt P38313). Described as above.

B1: Mtw1-Nnf1 heterodimer (MN) (complex, UniProt P39731 1-289; P47149 1-201)
chain 1: MSAPTMRSTSILTEHLGYPPISLVDDIINAVNEIMYKCTAAMEKYLLSKSKIGEEDYGEEIKSGVAKLESLLENSVDKNFDKLELYVLRNVLRIPEEYLDANVFRLENQKDLVIVDENELKKSEEKLREKVNDVELAFKKNEMLLKRVTKVKRLLFTIRGFKQKLNELLKCKDDVQLQKILESLKPIDDTMTLLTDSLRKLYVDSESTSSTEEVEALLQRLKTNGKQNNKDFRTRYIDIRTNNVLRKLGLLGDKEDEKQSAKPDARTQAGDIVSIDIEEPQLDLLDDVL
chain 2: MVNSHGIRYIRLKQVFNRALDQSISKLQSWDKVSSCFPQYVNSKQGAINVANCQRQLTEFWTELCQREFKEIMEERNVEQKLNELDELILEAKERYTDRDQDEVNKGPAIDELSSKELVECHLYSQRMHAIHEIDERLAKVNEMNDQLAQELKDLETQVEVEKNEIGKMYDEYLGSHTDQPANVLLVQSLNDMVLELKENY
Regarding B1, the binding result in experiment [1] is “binds”; in experiment [2], “binds”; in experiment [3] it was “binds”; in experiment [4], “binds”; in experiment [5], “no binding (tested: 3 μM)”; in experiment [6] it was “binds”. Also, the figures for the binding result in experiment [7] and in experiment [8] were “binds” and “no binding (tested: 3 μM)”, respectively.
